Counter-ions that a name gives are not always drawn. Some of these results come from one statement about several compounds together.
What was measured:
NaV 1.7 = NaV 1.7 (Homo sapiens, UniProt Q15858); experiment: Use-dependent block of NaV1.7 currents, IonWorks Quattro planar array electrophysiology; format: cell-based; settings: concentration producing 15% use-dependent inhibition, 10th versus 1st depolarizing pulse, 10 Hz
hNaV1.3 channels = target: T1, hNaV1.3 channels (Homo sapiens, UniProt Q9NY46); experiment: Use-dependent block of hNaV1.3 currents, IonWorks Quattro planar array electrophysiology; format: cell-based; settings: concentration producing 15% use-dependent inhibition, 10th versus 1st depolarizing pulse, 10 Hz, CHO cells
T1 construct: expressed in transfected cells

By UniProt entry, the sequences of proteins in these tests, tags left out.
UniProt Q15858, whole entry: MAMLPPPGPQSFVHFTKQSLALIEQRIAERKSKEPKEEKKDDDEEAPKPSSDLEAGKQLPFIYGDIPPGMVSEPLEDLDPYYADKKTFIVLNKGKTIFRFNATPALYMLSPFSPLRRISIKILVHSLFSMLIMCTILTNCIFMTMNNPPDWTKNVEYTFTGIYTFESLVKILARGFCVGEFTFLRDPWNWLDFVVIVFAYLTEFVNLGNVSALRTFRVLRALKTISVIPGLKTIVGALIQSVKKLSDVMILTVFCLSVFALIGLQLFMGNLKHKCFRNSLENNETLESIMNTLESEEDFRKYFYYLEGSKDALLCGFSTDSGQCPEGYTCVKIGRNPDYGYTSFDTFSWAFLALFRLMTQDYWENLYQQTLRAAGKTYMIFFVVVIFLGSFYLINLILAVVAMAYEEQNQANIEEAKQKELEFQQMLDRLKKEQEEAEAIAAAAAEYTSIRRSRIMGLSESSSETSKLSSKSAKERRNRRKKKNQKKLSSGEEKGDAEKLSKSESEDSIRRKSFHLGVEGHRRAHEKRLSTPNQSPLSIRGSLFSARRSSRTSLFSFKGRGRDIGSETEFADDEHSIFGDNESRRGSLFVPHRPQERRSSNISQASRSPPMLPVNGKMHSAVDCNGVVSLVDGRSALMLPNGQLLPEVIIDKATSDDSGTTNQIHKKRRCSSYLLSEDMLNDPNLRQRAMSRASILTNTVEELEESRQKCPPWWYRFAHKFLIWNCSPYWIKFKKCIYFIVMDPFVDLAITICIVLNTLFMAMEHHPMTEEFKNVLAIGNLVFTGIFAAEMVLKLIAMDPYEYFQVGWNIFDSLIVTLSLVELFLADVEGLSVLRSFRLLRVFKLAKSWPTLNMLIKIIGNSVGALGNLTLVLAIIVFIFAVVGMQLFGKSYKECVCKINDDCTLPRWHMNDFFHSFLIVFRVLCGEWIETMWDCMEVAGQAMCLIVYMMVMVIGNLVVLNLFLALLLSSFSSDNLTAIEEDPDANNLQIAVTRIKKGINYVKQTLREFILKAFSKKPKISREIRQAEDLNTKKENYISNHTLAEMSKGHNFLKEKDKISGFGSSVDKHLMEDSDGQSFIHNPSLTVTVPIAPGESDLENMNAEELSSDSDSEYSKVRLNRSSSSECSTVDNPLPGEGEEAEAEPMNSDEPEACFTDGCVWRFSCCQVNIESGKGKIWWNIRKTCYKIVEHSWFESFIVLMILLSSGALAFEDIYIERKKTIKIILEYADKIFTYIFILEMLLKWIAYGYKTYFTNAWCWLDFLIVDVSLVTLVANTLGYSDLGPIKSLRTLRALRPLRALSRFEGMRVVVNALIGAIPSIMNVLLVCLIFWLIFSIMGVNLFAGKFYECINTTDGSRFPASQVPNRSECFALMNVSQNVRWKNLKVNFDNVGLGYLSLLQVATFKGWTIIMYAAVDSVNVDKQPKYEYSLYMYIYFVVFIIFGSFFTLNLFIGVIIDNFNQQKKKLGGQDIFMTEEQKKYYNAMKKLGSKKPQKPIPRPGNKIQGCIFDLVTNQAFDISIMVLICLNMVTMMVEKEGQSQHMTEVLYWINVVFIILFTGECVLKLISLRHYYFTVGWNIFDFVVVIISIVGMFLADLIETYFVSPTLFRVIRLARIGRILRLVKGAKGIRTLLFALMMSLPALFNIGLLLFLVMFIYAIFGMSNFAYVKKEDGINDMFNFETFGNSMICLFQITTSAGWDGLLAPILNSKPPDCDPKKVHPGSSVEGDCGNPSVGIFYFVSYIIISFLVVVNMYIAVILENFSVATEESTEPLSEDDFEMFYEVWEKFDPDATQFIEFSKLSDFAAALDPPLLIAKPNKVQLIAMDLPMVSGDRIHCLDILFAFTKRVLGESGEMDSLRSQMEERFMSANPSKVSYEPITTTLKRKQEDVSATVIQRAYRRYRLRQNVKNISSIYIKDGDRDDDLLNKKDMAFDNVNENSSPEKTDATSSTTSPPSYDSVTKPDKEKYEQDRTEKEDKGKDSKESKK
UniProt Q9NY46, whole entry: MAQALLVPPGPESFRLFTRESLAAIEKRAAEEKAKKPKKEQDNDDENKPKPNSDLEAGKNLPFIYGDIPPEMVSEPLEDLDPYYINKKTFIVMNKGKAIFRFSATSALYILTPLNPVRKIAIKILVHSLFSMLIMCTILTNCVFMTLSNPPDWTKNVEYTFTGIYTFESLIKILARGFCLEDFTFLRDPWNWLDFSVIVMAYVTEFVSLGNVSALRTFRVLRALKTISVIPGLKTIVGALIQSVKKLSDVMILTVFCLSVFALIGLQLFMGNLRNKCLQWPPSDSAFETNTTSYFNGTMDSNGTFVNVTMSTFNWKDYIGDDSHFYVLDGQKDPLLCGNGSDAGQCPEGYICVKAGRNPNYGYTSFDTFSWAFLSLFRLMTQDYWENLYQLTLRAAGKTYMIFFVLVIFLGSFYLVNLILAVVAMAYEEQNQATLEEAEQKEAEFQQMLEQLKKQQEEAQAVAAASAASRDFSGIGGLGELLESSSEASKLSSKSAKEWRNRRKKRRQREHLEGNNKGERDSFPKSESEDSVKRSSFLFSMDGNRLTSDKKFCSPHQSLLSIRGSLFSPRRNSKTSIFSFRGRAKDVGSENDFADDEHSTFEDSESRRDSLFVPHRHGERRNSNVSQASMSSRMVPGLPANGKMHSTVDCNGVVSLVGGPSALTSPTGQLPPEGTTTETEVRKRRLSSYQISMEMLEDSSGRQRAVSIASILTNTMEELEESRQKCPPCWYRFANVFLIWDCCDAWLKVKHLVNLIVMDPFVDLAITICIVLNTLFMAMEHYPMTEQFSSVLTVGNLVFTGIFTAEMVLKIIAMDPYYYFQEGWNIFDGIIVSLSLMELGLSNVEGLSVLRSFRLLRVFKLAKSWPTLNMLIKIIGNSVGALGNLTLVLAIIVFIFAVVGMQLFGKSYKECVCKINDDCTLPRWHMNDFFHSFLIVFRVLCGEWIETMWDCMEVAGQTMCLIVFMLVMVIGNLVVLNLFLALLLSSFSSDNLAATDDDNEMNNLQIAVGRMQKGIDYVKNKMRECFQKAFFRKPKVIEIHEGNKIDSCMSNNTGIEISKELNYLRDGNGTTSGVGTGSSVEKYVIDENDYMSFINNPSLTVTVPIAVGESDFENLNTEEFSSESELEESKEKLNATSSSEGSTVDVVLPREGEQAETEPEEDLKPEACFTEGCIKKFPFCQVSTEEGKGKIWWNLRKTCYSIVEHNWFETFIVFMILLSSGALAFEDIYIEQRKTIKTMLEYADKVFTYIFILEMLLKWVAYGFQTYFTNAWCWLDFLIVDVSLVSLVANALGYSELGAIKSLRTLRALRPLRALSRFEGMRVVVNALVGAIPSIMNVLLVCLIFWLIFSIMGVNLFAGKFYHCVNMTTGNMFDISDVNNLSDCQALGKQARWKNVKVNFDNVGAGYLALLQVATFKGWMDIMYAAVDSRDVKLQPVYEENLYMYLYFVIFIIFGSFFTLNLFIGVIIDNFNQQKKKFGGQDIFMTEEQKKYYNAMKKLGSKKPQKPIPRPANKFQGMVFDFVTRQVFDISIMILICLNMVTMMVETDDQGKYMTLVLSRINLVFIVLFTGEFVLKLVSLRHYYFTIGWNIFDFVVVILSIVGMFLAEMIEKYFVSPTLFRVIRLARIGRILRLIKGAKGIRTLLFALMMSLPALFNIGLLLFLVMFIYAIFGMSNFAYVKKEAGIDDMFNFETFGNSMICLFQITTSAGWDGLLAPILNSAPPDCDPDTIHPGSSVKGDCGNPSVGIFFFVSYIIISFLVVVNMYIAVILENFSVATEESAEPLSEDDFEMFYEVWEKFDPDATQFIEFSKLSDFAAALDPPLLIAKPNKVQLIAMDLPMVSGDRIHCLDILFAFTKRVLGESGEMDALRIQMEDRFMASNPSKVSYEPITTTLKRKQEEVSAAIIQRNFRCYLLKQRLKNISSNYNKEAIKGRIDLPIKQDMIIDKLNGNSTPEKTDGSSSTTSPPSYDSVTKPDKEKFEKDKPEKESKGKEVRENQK

CC(C)OC(=O)c1cccnc1N1CCN(Cc2cccc(OCc3cccc(C(F)(F)F)c3)c2)CC1 [Example 83, 1-methylethyl 2-(4-{[3-({[3-(trifluoromethyl)phenyl]methyl}oxy)phenyl]methyl}-1-piperazinyl)-3-pyridinecarboxylate]
use-dependent pUD15 against NaV1.7 (NaV 1.7): inactive | use-dependent pUD15 against NaV1.3 (hNaV1.3 channels): 4-4.99

CCN(Cc1ccc(CN2CCN(c3ncccc3C(=O)OC(C)C)CC2)cc1)Cc1ccc(C)s1 [Example 224]
use-dependent pUD15 against NaV1.7 (NaV 1.7): 5-5.99 | use-dependent pUD15 against NaV1.3 (hNaV1.3 channels): 5-5.99

CC(C)OC(=O)c1c(-c2ccccc2)ccnc1N1CCN(Cc2ccc(OC(F)(F)F)cc2)CC1 [Example 137, 1-methylethyl 4-phenyl-2-[4-({4-[(trifluoromethyl)oxy]phenyl}methyl)-1-piperazinyl]-3-pyridinecarboxylate]
use-dependent pUD15 against NaV1.7 (NaV 1.7): 4-4.99 | use-dependent pUD15 against NaV1.3 (hNaV1.3 channels): inactive

CC(C)OC(=O)c1cccnc1N1CCN(Cc2cccc(OC(F)(F)C(F)F)c2)CC1 [Example 89]
use-dependent pUD15 against NaV1.7 (NaV 1.7): 4-4.99 | use-dependent pUD15 against NaV1.3 (hNaV1.3 channels): 5-5.99

COC(=O)c1c(CN2CCN(c3nccc(C)c3C(=O)OC(C)C)CC2)c(C)n(C)c1C [Example 252]
use-dependent pUD15 against NaV1.7 (NaV 1.7): 4-4.99 | use-dependent pUD15 against NaV1.3 (hNaV1.3 channels): 4-4.99

CC(C)OC(=O)c1cccnc1N1CCN(Cc2ccc(-c3ccccc3)cc2)CC1 [Example 345]
use-dependent pUD15 against NaV1.7 (NaV 1.7): inactive | use-dependent pUD15 against NaV1.3 (hNaV1.3 channels): 4-4.99

CCN(Cc1ccc(Oc2ccc(C#N)cc2)cc1)[C@H]1CCN(c2ncccc2C(=O)OC(C)C)C1 [Example 184]
use-dependent pUD15 against NaV1.7 (NaV 1.7): 5-5.99 | use-dependent pUD15 against NaV1.3 (hNaV1.3 channels): 5-5.99

CC(C)OC(=O)c1cccnc1N1CCN(Cc2ccc(-c3ccccc3C(F)(F)F)cc2)CC1 [Example 370]
use-dependent pUD15 against NaV1.7 (NaV 1.7): inactive | use-dependent pUD15 against NaV1.3 (hNaV1.3 channels): 4-4.99

COc1ccc(OCc2ccc(CN3CCN(c4ncccc4C(=O)OC(C)C)CC3)cc2)cc1 [Example 193]
use-dependent pUD15 against NaV1.7 (NaV 1.7): inactive | use-dependent pUD15 against NaV1.3 (hNaV1.3 channels): 5-5.99

CCN(Cc1ccc(OCc2ccccc2)cc1)[C@H]1CCN(c2ncccc2C(=O)OC(C)C)C1 [Example 174]
use-dependent pUD15 against NaV1.7 (NaV 1.7): 5-5.99 | use-dependent pUD15 against NaV1.3 (hNaV1.3 channels): 5-5.99

CCOC(=O)c1cccc(Nc2ccnc(N3CCN(Cc4ccccc4)CC3)c2C(=O)OC(C)C)c1 [Example 105, 1-methylethyl 4-({3-[(ethyloxy)carbonyl]phenyl}amino)-2-[4-(phenylmethyl)-1-piperazinyl]-3-pyridinecarboxylate]
use-dependent pUD15 against NaV1.7 (NaV 1.7): 5-5.99 | use-dependent pUD15 against NaV1.3 (hNaV1.3 channels): 5-5.99

CC(C)OC(=O)c1cccnc1N1CCN(Cc2cccc(OCc3cccc(F)c3F)c2)CC1 [Example 405]
use-dependent pUD15 against NaV1.7 (NaV 1.7): 5-5.99 | use-dependent pUD15 against NaV1.3 (hNaV1.3 channels): 5-5.99

CC(C)OC(=O)c1cccnc1N1CCN(Cc2cccc(OCc3ccc(Cl)cc3Cl)c2)CC1 [Example 84]
use-dependent pUD15 against NaV1.7 (NaV 1.7): inactive | use-dependent pUD15 against NaV1.3 (hNaV1.3 channels): inactive

CC(C)OC(=O)c1cccnc1N1CCN(Cc2ccc(N(C)C(=O)c3ccccc3)cc2)CC1 [Example 31, 1-Methylethyl 2-[4-({4-[methyl(phenylcarbonyl)amino]phenyl}methyl)-1-piperazinyl]-3-pyridinecarboxylate hydrochloride]
use-dependent pUD15 against NaV1.7 (NaV 1.7): 4-4.99 | use-dependent pUD15 against NaV1.3 (hNaV1.3 channels): 4-4.99

CC(C)OC(=O)c1cccnc1N1CCN(Cc2ccc(F)c(Oc3ccccc3)c2)CC1 [Example 342]
use-dependent pUD15 against NaV1.7 (NaV 1.7): 4-4.99 | use-dependent pUD15 against NaV1.3 (hNaV1.3 channels): 5-5.99

CCN(Cc1ccc(-c2ccc(OC)cc2)cc1)[C@@H]1CCN(c2ncccc2C(=O)OC(C)C)C1 [Example 44, 1-methylethyl 2-[(3R)-3-(ethyl{[4′-(methyloxy)-4-biphenylyl]methyl}amino)-1-pyrrolidinyl]-3-pyridinecarboxylate]
use-dependent pUD15 against NaV1.7 (NaV 1.7): inactive | use-dependent pUD15 against NaV1.3 (hNaV1.3 channels): inactive

Cc1c(F)cccc1CN1CCN(c2nccc(-c3ccccc3)c2C(=O)OC(C)C)CC1 [Example 143, 1-methylethyl 2-{4-[(3-fluoro-2-methylphenyl)methyl]-1-piperazinyl}-4-phenyl-3-pyridinecarboxylate]
use-dependent pUD15 against NaV1.7 (NaV 1.7): 4-4.99 | use-dependent pUD15 against NaV1.3 (hNaV1.3 channels): 4-4.99

Cc1ccnc(N2CCN(Cc3cnc(N4CCCCC4)s3)CC2)c1C(=O)OC(C)C [Example 253]
use-dependent pUD15 against NaV1.7 (NaV 1.7): 5-5.99 | use-dependent pUD15 against NaV1.3 (hNaV1.3 channels): 5-5.99

CCN(Cc1ccc(CN2CCN(c3ncccc3C(=O)OC(C)C)CC2)cc1)Cc1cccc(C(=O)OC(C)C)c1 [Example 480, 1-methylethyl 2-(4-{[4-({ethyl[(3-{[(1-methylethyl)oxy]carbonyl}phenyl)methyl]amino}methyl)phenyl]methyl}-1-piperazinyl)-3-pyridinecarboxylate dihydrochloride]
use-dependent pUD15 against NaV1.7 (NaV 1.7): 4-4.99 | use-dependent pUD15 against NaV1.3 (hNaV1.3 channels): 5-5.99

COc1cccc(OCc2cccc(CN3CCN(c4ncccc4C(=O)OC(C)C)CC3)c2)c1 [Example 206]
use-dependent pUD15 against NaV1.7 (NaV 1.7): 5-5.99 | use-dependent pUD15 against NaV1.3 (hNaV1.3 channels): 5-5.99

COc1ccccc1COc1ccc(CN2CCN(c3ncccc3C(=O)OC(C)C)CC2)cc1 [Example 429]
use-dependent pUD15 against NaV1.7 (NaV 1.7): 5-5.99 | use-dependent pUD15 against NaV1.3 (hNaV1.3 channels): 5-5.99

CC(C)OC(=O)c1cccnc1N1CCN(Cc2ccc(OCc3ccc(F)cc3)cc2)CC1 [Example 318, 1-methylethyl 2-{4-[(4-{[(4-fluorophenyl)methyl]oxy}phenyl)methyl]-1-piperazinyl}-3-pyridinecarboxylate]
use-dependent pUD15 against NaV1.7 (NaV 1.7): 4-4.99 | use-dependent pUD15 against NaV1.3 (hNaV1.3 channels): 4-4.99

CC(C)OC(=O)c1cccnc1N1CCN(Cc2ccccc2Sc2ccc(Cl)cc2)CC1 [Example 369]
use-dependent pUD15 against NaV1.7 (NaV 1.7): inactive | use-dependent pUD15 against NaV1.3 (hNaV1.3 channels): inactive

CC(C)OC(=O)c1cccnc1N1CCN(Cc2ccccc2-c2ccccc2)CC1 [Example 340]
use-dependent pUD15 against NaV1.7 (NaV 1.7): 5-5.99 | use-dependent pUD15 against NaV1.3 (hNaV1.3 channels): 5-5.99

CCN(Cc1ccc(-c2cccnc2)cc1)[C@@H]1CCN(c2nccc(-c3ccccc3)c2C(=O)OC(C)C)C1 [Example 165, 1-methylethyl 2-[(3R)-3-(ethyl{[4-(3-pyridinyl)phenyl]methyl}amino)-1-pyrrolidinyl]-4-phenyl-3-pyridinecarboxylate]
use-dependent pUD15 against NaV1.7 (NaV 1.7): inactive | use-dependent pUD15 against NaV1.3 (hNaV1.3 channels): inactive

CC(C)OC(=O)c1cccnc1N1CCN(Cc2ccc(OCc3cc(F)c(F)cc3F)cc2)CC1 [Example 427]
use-dependent pUD15 against NaV1.7 (NaV 1.7): 4-4.99 | use-dependent pUD15 against NaV1.3 (hNaV1.3 channels): 4-4.99

CCN(Cc1cccc(CN2CCN(c3ncccc3C(=O)OC(C)C)CC2)c1)Cc1c(F)cccc1Cl [Example 512, 1-methylethyl 2-{4-[(3-{[[(2-chloro-6-fluorophenyl)methyl](ethyl)amino]methyl}phenyl)methyl]-1-piperazinyl}-3-pyridinecarboxylate]
use-dependent pUD15 against NaV1.7 (NaV 1.7): 4-4.99 | use-dependent pUD15 against NaV1.3 (hNaV1.3 channels): 5-5.99

CC(C)OC(=O)c1cccnc1N1CCN(Cc2ccc(OCc3c(F)cccc3F)cc2)CC1 [Example 430]
use-dependent pUD15 against NaV1.7 (NaV 1.7): 5-5.99 | use-dependent pUD15 against NaV1.3 (hNaV1.3 channels): 5-5.99

— US20130023541A1, “VOLTAGE-GATED SODIUM CHANNEL BLOCKERS” (Glaxo Group Limited, priority 2010, published 2013)
